At least one read-out could not be matched to a standard name with certainty.
Target: T1, 5-HT2 (Rattus norvegicus, UniProt P14842)
T1 construct: from tissue
Assay: Radioligand binding at 5-HT2 receptors
Conditions: frontal cortex

Amino acid sequences for entries named in this document (tags omitted).
UniProt P14842, whole entry: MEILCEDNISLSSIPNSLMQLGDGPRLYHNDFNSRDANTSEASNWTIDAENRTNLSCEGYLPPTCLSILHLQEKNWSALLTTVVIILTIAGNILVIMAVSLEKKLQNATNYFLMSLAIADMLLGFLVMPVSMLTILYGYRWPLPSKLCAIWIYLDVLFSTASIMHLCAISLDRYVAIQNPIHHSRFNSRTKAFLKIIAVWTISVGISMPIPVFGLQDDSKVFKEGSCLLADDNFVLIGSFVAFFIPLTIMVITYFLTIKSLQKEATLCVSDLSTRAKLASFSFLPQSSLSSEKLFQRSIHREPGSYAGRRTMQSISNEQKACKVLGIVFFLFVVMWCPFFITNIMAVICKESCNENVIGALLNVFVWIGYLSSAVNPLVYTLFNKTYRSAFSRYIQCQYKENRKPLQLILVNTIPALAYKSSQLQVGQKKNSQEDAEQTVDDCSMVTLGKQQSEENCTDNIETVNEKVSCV

## 4-Methoxy-2-(4-(3aα,4a,5,6,7aα-hexahydro-4,7-methano-1H-isoindol-1,3(2H)-dionyl)-butyl)-1,2,3,3a, 8,8a-hexahydroindeno[1,2-c]pyrrole hydrochloride [Example 55]
  IC50: 96 nM
